1 compound from publication PMC8765435, “In Vitro Antimalarial Activity of Inhibitors of the Human GTPase Rac1” (Antimicrobial Agents and Chemotherapy, 2022) can be followed below.

The subject of this data set is HMEC-1 human microvascular endothelial cells. Description: Cell cytotoxicity MTT assay. The data set is classed as cell-based. The following applies: ratio IC50 against HMEC-1 cells / IC50 against D10 asexual parasites. How it is done: Cytotoxicity was evaluated on human microvascular endothelial cells (HMEC-1) as detailed in the supplemental material. […] Plates were then read on a microplate reader (Synergy 4; BioTek) at a wavelength of 550 nm (reference, 650 nm). […] All tests were performed in duplicate at least three times.
The selectivity index (SI) is the ratio between the cytotoxic IC50 value against HMEC-1 cells and the parasitic IC50 value against the D10 strain and indicates the compound selectivity for the parasite.
Cytotoxicity was evaluated on Human Microvascular Endothelial Cells (HMEC-1) maintained
and 2 mM L-glutamine. Cells were seeded in 96 well flat bottom tissue culture clusters (1.5x104
cells/well), let adhere overnight and treated with serial dilutions of test compounds . […]
(Formazan colour is commonly taken as a measure of viable cells.)

In the case of `O=c1cc(CN2CCOCC2)occ1OCCCCCSc1ccnc2cc(C(F)(F)F)ccc12` [EHT1864], the “SI (selectivity index)” value is 12.5.
